Experimental findings from publication PMC3774411, “Characterization of the Human Sigma-1 Receptor Chaperone Domain Structure and Binding Immunoglobulin Protein (BiP) Interactions*” (The Journal of Biological Chemistry, 2013) are described below.

Protein sequences, listed by entry. Tags and fused reporters are not part of them. Residues count along the entry.
UniProt Q99720, residues 112-223: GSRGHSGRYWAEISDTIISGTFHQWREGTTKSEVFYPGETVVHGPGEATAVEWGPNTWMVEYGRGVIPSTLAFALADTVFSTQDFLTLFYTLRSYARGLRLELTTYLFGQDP
UniProt P11021, residues 418-638: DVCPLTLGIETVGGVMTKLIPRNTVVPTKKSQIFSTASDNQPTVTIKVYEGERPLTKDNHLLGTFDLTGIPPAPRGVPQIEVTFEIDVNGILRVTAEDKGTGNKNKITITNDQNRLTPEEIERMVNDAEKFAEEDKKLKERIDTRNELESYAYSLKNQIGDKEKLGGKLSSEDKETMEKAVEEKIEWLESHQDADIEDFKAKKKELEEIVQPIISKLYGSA

For this assay, the target named is human sigma-1 receptor chaperone domain (residues 112-223) (human) (UniProt Q99720). Nature of the assay: condition: 1:1 molar ratio, in the presence of 2.5 mM calcium; NMR titration; 15N-labelled S1R(cd) (~250 uM) in DPC micelles titrated with unlabelled BiP constructs; 1H,15N SOFAST-HMQC, cross-peak intensities and chemical shifts; 100 mM NaCl, 30 mM DPC, 5 mM 2-mercaptoethanol, 20 mM HEPES pH 6.5, 37 C; full-length BiP without and with 2.5 mM calcium chloride, NBD without calcium, SBD with 2.5 mM calcium; both purified.

These are yes or no findings as the source states them, for the method shown.

Turning to “isolated substrate binding domain of human BiP (residues 418-638) (from UniProt P11021 418-638) (domain or fragment)”, the binding entry is recorded as “no binding”.
